Results of single-concentration screens

Chains of the proteins cited; added tags and fusions are not shown. Residues count along the entry.
UniProt Q4DA54, 1-478: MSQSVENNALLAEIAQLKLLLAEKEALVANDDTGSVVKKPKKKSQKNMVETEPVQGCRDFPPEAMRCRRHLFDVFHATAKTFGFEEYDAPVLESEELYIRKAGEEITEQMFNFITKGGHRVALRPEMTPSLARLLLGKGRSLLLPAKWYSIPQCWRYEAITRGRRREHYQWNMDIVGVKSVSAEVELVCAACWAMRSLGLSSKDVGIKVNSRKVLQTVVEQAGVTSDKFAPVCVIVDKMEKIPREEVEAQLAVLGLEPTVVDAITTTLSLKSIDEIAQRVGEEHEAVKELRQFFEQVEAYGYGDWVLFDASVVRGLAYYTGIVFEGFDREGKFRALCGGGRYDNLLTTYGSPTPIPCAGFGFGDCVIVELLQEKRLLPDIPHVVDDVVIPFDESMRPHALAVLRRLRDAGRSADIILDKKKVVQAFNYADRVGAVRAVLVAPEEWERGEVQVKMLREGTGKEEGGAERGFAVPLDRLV
UniProt A4I591, 1-473: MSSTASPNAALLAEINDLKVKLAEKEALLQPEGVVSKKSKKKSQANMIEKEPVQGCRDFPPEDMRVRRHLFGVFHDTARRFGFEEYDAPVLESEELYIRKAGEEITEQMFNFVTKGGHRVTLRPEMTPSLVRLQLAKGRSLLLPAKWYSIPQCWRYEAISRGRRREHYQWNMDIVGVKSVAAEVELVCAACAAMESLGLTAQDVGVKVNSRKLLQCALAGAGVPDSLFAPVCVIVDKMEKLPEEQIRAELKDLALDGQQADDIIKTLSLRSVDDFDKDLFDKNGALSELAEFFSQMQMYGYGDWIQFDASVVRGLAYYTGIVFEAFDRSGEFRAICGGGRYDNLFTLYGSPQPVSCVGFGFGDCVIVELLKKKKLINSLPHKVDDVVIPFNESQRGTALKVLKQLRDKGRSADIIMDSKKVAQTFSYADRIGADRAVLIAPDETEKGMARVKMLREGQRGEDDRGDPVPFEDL

Data taken from ChEMBL document CHEMBL3988442, “University of Dundee, Small-Polar-MMV Screening Library” (2021).

Results are given as percent effect.
How 0% and 100% were set is not recorded. Most values in the screen are low, and negative values occur.
The compounds are a random part of those screened.
A dash means the value is not listed here; it may have been measured.

A: 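Assay of Toxoplasma gondii numbers, read through their beta-galactosidase reporter with a colour substrate. Compounds at 10 µM. Higher reads as fewer parasites (inferred from which compounds were picked for retests). About 67,000 compounds were tested under these conditions; 0.38% (about 260) showed 50% or more at least once.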
B: 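Enzyme assay of histidyl-tRNA synthetase; the read-out is not stated. Target: Histidine-tRNA ligase, Trypanosoma cruzi CL Brener (UniProt Q4DA54). Concentration: 30 µM. Direction is inferred from retests: higher values go with stronger inhibition. About 69,000 compounds were tested under these conditions; 0.045% (about 31) showed 50% or more at least once.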
C: 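Enzyme assay of histidyl-tRNA synthetase; the read-out is not stated. Target: Histidine-tRNA ligase, Leishmania infantum (UniProt A4I591). Concentration: 30 µM. Higher reads as stronger inhibition (inferred: compounds with an IC50 in retests scored well above the rest). The assay is labelled LdHisRS but filed under L. infantum. Of about 69,000 compounds tested this way, about 410 (0.6%) reached 50% or more in at least one test.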
D: 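Whole-parasite assay of Trypanosoma brucei over 72 hours; the read-out is not stated. Compounds at 30 µM. Direction is inferred from retests: higher values go with stronger inhibition. Values scatter widely below zero; nearly all retest evidence comes from the higher of the two concentrations used. Size under these conditions: about 64,000 compounds, about 940 of them at 50% or above in at least one test.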

SMILES,A,B,C,D
O=C(c1ccccn1)N1CCCC(c2nccn2Cc2ccncc2)C1 (configuration not stated),-1.423,5.785,21.15,-49.54
CCOc1ccc(C(=O)CCC(=O)NCCc2nncn2CC)cc1C,-4.806,-6.548,1.075,-47.07
CS(=O)(=O)N1CC2(CCCN(C3COC3)C2)Cc2ccccc21 (configuration not stated),-5.117,6.509,5.517,-
CC(NC(=O)CCNC(=O)c1ccoc1)c1ccccc1 (configuration not stated),-31.53,9.639,4,-47.87
CCCSc1ncc(CN2CCN(C)C(=O)C2C)cn1 (configuration not stated),-14.82,5.202,-2.128,-60.23
COCc1ccccc1C(=O)N1CCCC1Cn1nc(C)cc1C (configuration not stated),-10.89,5.539,11.01,-
CCN(CC(=O)Nc1c(C)n[nH]c1C)CC(O)c1ccc(C)cc1 (configuration not stated),4.261,-1.093,24.66,-16.63
COc1cccc(OC2CN(C(=O)Cn3nc4ccccc4n3)C2)c1,-12.6,9.639,28,-6.267
Cc1nc(C)c(C)c(NCc2cnn3cccnc23)n1,1.669,0.5525,23.94,-31.85
O=C(CN(CC(O)c1ccc(F)cc1)C1CC1)NC(C1CC1)C1CC1 (configuration not stated),4.372,7.975,19.75,-17.19
Cc1noc(C)c1CC(=O)N1CCN(Cc2cscn2)CC1,5.582,2.959,17.86,4.238
Cc1cc(C(=O)NCCN2CCCCCC2)nn1C(C)(C)C,-1.038,21.39,34.94,-37.46
COc1nccc(N2CC[C@@H](N3CCN(C)CC3)[C@H](O)C2)c1C#N,-11.37,-2.646,20,6.393
CN(C)CC1CSCCCN1C(=O)c1cccc(C(F)(F)F)c1 (configuration not stated),3.711,4,-4.11,-6.872
O=C(CN1C(=O)CCC1=O)NCc1cc(C2CC2)n(C2CCCC2)n1,-2.059,5.155,-1.739,-0.7595
O=C(CN1CCCC1Cn1cccn1)NCCC1=CCCCC1 (configuration not stated),17.83,10.86,25.42,-
O=C(O)C(F)(F)F.[H][C@@]12OCCN(C(=O)c3ccoc3C)[C@@]1([H])CC[C@H]2OCc1ccccn1,-6.678,-,-,-18.93
Cc1noc2nc(C3CCCN(Cc4cccnc4)C3)cc(C(F)F)c12 (configuration not stated),-21.31,8.511,11.46,2.678
O=C(O)C(F)(F)F.O=C(O)c1c(-c2cncnc2)ncc2c1CCN(CC1CCOC1)C2 (configuration not stated),-2.737,-,-,-18.52
Cn1cnnc1CCC(=O)N1CCCC(OCc2cccnc2)C1 (configuration not stated),4.5,4.933,12.94,-30.16
C[C@H](c1ccc(F)cc1)n1c(C2CCC2)n[nH]c1=O,-,2.299,14.52,-19.68
CCn1cc(CN2CCN(C(=O)N3CCOCC3)CC2)cn1,3.581,5.422,-4.396,-53.61
CN(C)c1cc(C(=O)NC2(c3cccc(F)c3)CCOCC2)ccn1,-1.092,1.786,3.226,-39.83
CCN(CC)C(CNC(=O)c1ccc(-n2cncn2)cc1)c1ccsc1 (configuration not stated),0.2068,3.704,25.33,8.625
CCN(CC1CN(Cc2ccccn2)CCO1)c1cccnn1 (configuration not stated),-6.395,15,15.18,13.58
CC(C)n1cnc2c1C(C(=O)N1CCCC1)N(CC1CC1)CC2 (configuration not stated),-,4.598,12,-
[H][C@]12CC[C@@]3(N=C(C)N(C)C3=O)[C@@]1([H])CN(S(=O)(=O)CC(C)C)C2,-3.779,-,-,-21.12
Cc1ccc2nc(C(=O)N3CCNC(=O)C3c3cccc(F)c3)cn2c1 (configuration not stated),3.786,0,15,-99.71
CC(C)CNC(=O)Nc1ccc(CN2CCOC2=O)cc1,5.932,7.317,-14.42,-41.88
CN(C)C(CNC(=O)c1[nH]nc(C2CC2)c1Br)C1CC1 (configuration not stated),9.065,4.972,3.109,-6.619
COc1ccc(C2CCCN2C(=O)CCNc2ncccn2)cc1 (configuration not stated),2.408,1.653,11.54,-35.27
COc1ccc(C(=O)CCC(=O)NCc2ncc(C)s2)cc1F,2.561,-3.96,11.96,-1.346
NCc1cn(CC2CCCN(C(=O)CC3=CCCCC3)C2)nn1 (configuration not stated),5.761,2.41,28.21,-21.03
COc1ccc(CN2CCc3ncnc(C4CC4)c3CC2)cc1.O=C(O)C(F)(F)F,-40.73,-,-,-6.255
Cc1cc(CN2CCN(C(=O)CCCc3nc(C(C)C)no3)CC2)on1,-11.84,3.509,20,-14.04
CCc1nnc2n1CCN(C(=O)c1cc3ccc(F)cc3nc1C)C2,5.611,3.053,24.66,12.2
CN1CCC2(CC1)CNC(=O)c1ccccc1O2,5.317,-0.5405,16.67,11.58
CN(C)c1ncc2c(n1)C1(CCN(Cc3cccnc3)C1)COC2 (configuration not stated),21.15,2.488,29.73,6.431
Cc1nn(CCO)c(C)c1CNC1CCC(C)(C)c2ccccc21 (configuration not stated),-1.101,1.245,16.5,28.69
CC(C)CC(=O)N1CC(=O)N(CCc2ccccc2)CC(O)C1 (configuration not stated),-15.78,7.865,14.29,-39.8
Cc1n[nH]c(C)c1NC(=O)CN1CCCC1c1c(C)nn(C)c1C (configuration not stated),4.532,5.523,9.649,-16.48
O=C(O)C(F)(F)F.O=C(O)C(F)(F)F.c1ccc(CN2CCC3(CC2)CC(Oc2cccnc2)C3)nc1,6.444,-,-,-50.02
COc1cc2c(cc1CNC(Cc1cccs1)c1nccs1)OCO2.Cl (configuration not stated),11.03,-,-,-17.08
CCc1nc(C)c([C@H]2CN(C)C[C@@H]2C(=O)Nc2ccc3[nH]ncc3c2)[nH]1,9.324,1.058,3.03,-14.45
CN1CCN(C[C@H]2CN3CC[C@H]2C[C@@H]3CNC(=O)c2ccco2)CC1,-,5.435,22.97,-
Cc1nc(C2CCN(C(=O)c3ccc(=O)n(C)c3)CC2)c2sccn12,10.19,3.784,8.333,7.447
CCCn1cc(S(=O)(=O)N[C@H]2CN(C(C)=O)C[C@@H]2C2CC2)cn1,-5.743,-2.128,7.143,-42.59